Counter-ions that a name gives are not always drawn. ± gives the standard deviation of the averaged measurements. The list shows a part of the results. Most values come without repeats; read them as rough.

The test has as its system Reh. The test is described as follows: S-phase gammaH2AX median, Z-score vs plate median (drug alone); higher = more S-phase DNA damage. The note with it: MK1775 concentration 0 nM; 10 µM; 4 h.
For `N=C(NCCC[C@H](N)C(=O)O)N[N+](=O)[O-]` [NG-Nitro-L-arginine], the “S-phase gammaH2AX median (Z-score)” value amounted to 0.0473. The figure for `CCCN(CCC)C1Cc2cc(OC)c(OC)cc2C1` is 0.407; for `O=c1c2ccccc2[se]n1-c1ccccc1` [Ebselen] it is 0.0598. For `NCC#Cc1ccccc1` [3-Phenylpropargylamine hydrochloride], the “S-phase gammaH2AX median (Z-score)” value came to 0. `COC(=O)N1CCN(C(=O)Cc2ccc(Cl)c(Cl)c2)C(CN2CCCC2)C1` (configuration not stated): the “S-phase gammaH2AX median (Z-score)” value stood at 0.265. As to `NCC(O)c1ccc(O)cc1` (configuration not stated) [(?)-Octopamine hydrochloride], the “S-phase gammaH2AX median (Z-score)” value came out at 0.187. Take `CC(C)NC(C)Cc1ccc(I)cc1` (configuration not stated) [Iofetamine hydrochloride]: the “S-phase gammaH2AX median (Z-score)” value was found to be 0.0252. With `CN1CCc2cccc(Cl)c2CC1` the figure was 0.147; with `COC(=O)[C@@H](N)CCCNC(=N)N[N+](=O)[O-]` [NG-Nitro-L-arginine methyl ester hydrochloride], -0.0166; with `NC(CCCCCP(=O)(O)O)C(=O)O` (configuration not stated) [(?)-2-Amino-7-phosphonoheptanoic acid], 0.124. For the compound `S=C=Nc1cccc(C2(N3CCCCC3)CCCCC2)c1` [Metaphit methanesulfonate], the “S-phase gammaH2AX median (Z-score)” value worked out at 0. As for `CN1CCC23CCCCC2C1Cc1ccc(O)cc13` [Dextrorphan D-tartrate], the “S-phase gammaH2AX median (Z-score)” value was -0.132. Take `CC(=O)O[C@H]1C[C@@H]2CC[C@@H]3[C@H](CC[C@@]4(C)[C@H]3C[C@H]([N+]3(C)CCCCC3)[C@@H]4OC(C)=O)[C@@]2(C)C[C@@H]1[N+]1(C)CCCCC1` [Pancuronium bromide]: the “S-phase gammaH2AX median (Z-score)” value was -0.591. Regarding `CP(=O)(O)C1=CCNCC1`, the “S-phase gammaH2AX median (Z-score)” value was 0.0601. In the case of `NC(=O)c1cc(N2CC2)c([N+](=O)[O-])cc1[N+](=O)[O-]`, the “S-phase gammaH2AX median (Z-score)” value was 0.0155. Take `Cn1cc(C2=C(c3cn(C4CCN(Cc5ccccn5)CC4)c4ccccc34)C(=O)NC2=O)c2ccccc21`: the “S-phase gammaH2AX median (Z-score)” value came to 0.128.

On to `C=CCN1CC[C@]23c4c5ccc(O)c4O[C@H]2C(=O)CC[C@@]3(O)[C@H]1C5` [Naloxone hydrochloride], for which the “S-phase gammaH2AX median (Z-score)” value was 0.0922.

Regarding `CC[C@@H](C(=O)[C@@H](C)[C@@H](O)[C@H](C)[C@@H]1O[C@@H]([C@@H](CC)C(=O)O)CC[C@@H]1C)[C@H]1O[C@]2(C=C[C@@H](O)[C@]3(CC[C@@](C)([C@H]4CC[C@](O)(CC)[C@H](C)O4)O3)O2)[C@H](C)C[C@@H]1C` [Salinomycin (Procoxacin)], the “S-phase gammaH2AX median (Z-score)” value turned out to be 0.0329.

Take `COc1ccc2[nH]c3c(c2c1)CCNC3` [6-Methoxy-1,2,3,4-tetrahydro-9H-pyrido[3,4b] indole]: the “S-phase gammaH2AX median (Z-score)” value was determined as 0.033. Consider `NC(=O)CI` [Iodoacetamide], for which the “S-phase gammaH2AX median (Z-score)” value was determined as 0.142. Consider `CN1CC[C@]2(CCN3CCc4c(oc5ccccc45)[C@@H]3C2)N(C)C1=O`, for which the “S-phase gammaH2AX median (Z-score)” value is 0.156. Regarding `N#CC(C#N)=Cc1ccc(O)c(O)c1` [Tyrphostin 23], the “S-phase gammaH2AX median (Z-score)” value was -0.1.

As to `CN1[C@@H]2C[C@@H](OC(=O)[C@H](CO)c3ccccc3)C[C@H]1[C@@H]1O[C@@H]12` [(-)-Scopolamine hydrobromide], the “S-phase gammaH2AX median (Z-score)” value is -0.174. In the case of `COc1cc(CC(C)N)c(OC)cc1I` (configuration not stated) [(?)-DOI hydrochloride], the “S-phase gammaH2AX median (Z-score)” value was -0.0157. Consider `NNCc1cccc(O)c1` [3-Hydroxybenzylhydrazine dihydrochloride], for which the “S-phase gammaH2AX median (Z-score)” value is -0.0283.

With `CCCN(CCC)[C@@H]1CCc2c(F)ccc(O)c2C1` [R(+)-UH-301 hydrochloride], the “S-phase gammaH2AX median (Z-score)” value turned out to be 0.0868. As for `N[C@@H]1C[C@H]1c1ccccc1` [Tranylcypromine hydrochloride], the “S-phase gammaH2AX median (Z-score)” value is 0.196. As for `O=C(O)[C@@H]1[C@H](C(=O)O)[C@H]2CC[C@@H]1O2` [Endothall], the “S-phase gammaH2AX median (Z-score)” value came out at 0.0472. As for `O=C1CC[C@@]2(O)[C@H]3Cc4ccc(O)c5c4[C@@]2(CCN3CC2CC2)[C@H]1O5` [Naltrexone hydrochloride], the “S-phase gammaH2AX median (Z-score)” value is -0.0426. `CN1CCc2cc(O)cc3c2[C@H]1Cc1ccc(O)c(O)c1-3` [R(-)-2,10,11-Trihydroxyaporphine hybrobromide]: the “S-phase gammaH2AX median (Z-score)” value stood at 0.0945. With `NC(CP(=O)(O)O)C(=O)O` (configuration not stated) [(?)-2-Amino-3-phosphonopropionic acid] the figure was -0.0272. Consider `Oc1ccc2c3c1O[C@H]1c4[nH]c5ccccc5c4C[C@@]4(O)[C@@H](C2)N(CC2CC2)CC[C@]314` [Naltrindole hydrochloride], for which the “S-phase gammaH2AX median (Z-score)” value is -0.173. As to `CCCN1CCC[C@@H](c2cccc(C#N)c2)C1` [S(-)-DS 121 hydrochloride], the “S-phase gammaH2AX median (Z-score)” value is -0.101.

As for `CC(NC(C)(C)C)C(=O)c1cccc(Cl)c1` (configuration not stated) [Bupropion hydrochloride], the “S-phase gammaH2AX median (Z-score)” value turned out to be 0.0738. Take `NCC(CC(=O)O)c1ccc(Cl)cc1` (configuration not stated) [(?)-Baclofen]: the “S-phase gammaH2AX median (Z-score)” value turned out to be 0.0524.

With `CN1CC[C@@]2(C)c3cc(O)ccc3N(C)C12` (single isomer, unassigned; (-)) [(-)-Eseroline fumarate], the “S-phase gammaH2AX median (Z-score)” value is -0.0661. On to `CC(C)[C@]12O[C@H]1[C@@H]1O[C@]13[C@]1(O[C@H]1C[C@H]1C4=C(CC[C@@]13C)C(=O)OC4)[C@@H]2O` [Triptolide], for which the “S-phase gammaH2AX median (Z-score)” value was found to be 0.0909.

`CC(=O)[C@H]1CC[C@H]2[C@@H]3CC[C@H]4C[C@H](O)CC[C@]4(C)[C@H]3CC[C@]12C` [5alpha-Pregnan-3alpha-ol-20-one]: the “S-phase gammaH2AX median (Z-score)” value turned out to be 0.237. Consider `CCN1C[C@]2(C)CC[C@H](O)[C@]34C1[C@@H](C[C@H]23)[C@@]1(O)C[C@H](OC)[C@H]2C[C@@H]4[C@@H]1[C@H]2O` [Karakoline], for which the “S-phase gammaH2AX median (Z-score)” value was -0.022. Turning to `CC[C@@H](CO)NC(=O)[C@@H]1C=C2c3cccc4[nH]cc(c34)C[C@H]2N(C)C1` [Methylergonovine maleate], the “S-phase gammaH2AX median (Z-score)” value was -0.111. The figure for `CCC1(C2=NCCN2)Cc2ccccc2O1` (configuration not stated) [Efaroxan hydrochloride] is 0.0882; for `CCOC(=O)c1ncn2c1[C@@H]1CCCN1C(=O)c1cc(OC)ccc1-2` it is 0.0639; for `NC(N)=Nc1ccc2[nH]c3c(c2c1)C[C@@]1(O)[C@H]2Cc4ccc(O)c5c4[C@@]1(CCN2CC1CC1)[C@H]3O5` [Guanidinyl-naltrindole di-trifluoroacetate] it is -0.154. With `CN1[C@@H]2CC[C@H]1C[C@@H](OC(=O)c1cc(Cl)cc(Cl)c1)C2` [3-Tropanyl-3,5-dichlorobenzoate], the “S-phase gammaH2AX median (Z-score)” value was -0.214.

In the case of `CC(C)(C)c1cc(C=C(C#N)C#N)cc(C(C)(C)C)c1O` [Tyrphostin A9], the “S-phase gammaH2AX median (Z-score)” value was -0.147. For `O=C(O)c1nn(Cc2ccc(Cl)cc2Cl)c2ccccc12` [Lonidamine], the “S-phase gammaH2AX median (Z-score)” value turned out to be 0.102 ± 0.1. Take `O=[N+]([O-])c1ccc(O[C@@H]2O[C@H](CO)[C@@H](O)[C@H](O)[C@H]2F)c([N+](=O)[O-])c1` [2,4-Dinitrophenyl 2-fluoro-2-deoxy-beta-D-glucopyranoside]: the “S-phase gammaH2AX median (Z-score)” value was 0.0945.

The values above are taken from the supplement of paper PMC5355238.
